{
  "source": "the supplement of paper PMC8728848",
  "assay_in_all_cases": "glycan array binding signal (z-score within array); higher = stronger binding",
  "conditions_in_all_cases": "glycan notation: IUPAC condensed, linker removed",
  "key": {"[1]": {"biological_target": "Glc(b1-6)Glc", "method_in_brief": "(§1)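 The binding signal is a Z-score computed within each array. Data were drawn from 3228 arrays in the Consortium for Functional Glycomics database, restricted to those with a known protein sequence. Scores were averaged over arrays of the same protein sequence at different concentrations or buffers, and over linkers, and negative values can be taken as non-binding.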"}, "[2]": {"biological_target": "GlcA(b1-3)Gal", "method_in_brief": "as §1"}, "[3]": {"biological_target": "GlcA(b1-3)GlcNAc", "method_in_brief": "as §1"}, "[4]": {"biological_target": "GlcA(b1-6)Gal", "method_in_brief": "as §1"}, "[5]": {"biological_target": "GlcA3S(b1-3)Gal(b1-4)GlcNAc(b1-2)Man", "method_in_brief": "as §1"}, "[6]": {"biological_target": "GlcA3S(b1-3)Gal(b1-4)GlcNAc(b1-3)Gal(b1-4)Glc", "method_in_brief": "as §1"}, "[7]": {"biological_target": "GlcNAc(a1-3)Gal(b1-4)GlcNAc", "method_in_brief": "as §1"}, "[8]": {"biological_target": "GlcNAc(a1-4)Gal(b1-3)GlcNAc", "method_in_brief": "as §1"}, "[9]": {"biological_target": "GlcNAc(a1-4)Gal(b1-4)GalNAc", "method_in_brief": "as §1"}, "[10]": {"biological_target": "GlcNAc(a1-4)Gal(b1-4)GlcNAc", "method_in_brief": "as §1"}, "[11]": {"biological_target": "GlcNAc(a1-4)Gal(b1-4)GlcNAc(b1-3)Gal(b1-4)Glc", "method_in_brief": "as §1"}, "[12]": {"biological_target": "GlcNAc(a1-4)Gal(b1-4)GlcNAc(b1-3)Gal(b1-4)GlcNAc", "method_in_brief": "as §1"}, "[13]": {"biological_target": "GlcNAc(a1-4)Gal(b1-4)GlcNAc(b1-3)Gal(b1-4)GlcNAc(b1-3)Gal(b1-4)GlcNAc", "method_in_brief": "as §1"}, "[14]": {"biological_target": "GlcNAc(a1-4)Gal(b1-4)GlcNAc(b1-3)Gal(b1-4)[Fuc(a1-3)]GlcNAc(b1-3)Gal(b1-4)[Fuc(a1-3)]GlcNAc", "method_in_brief": "as §1"}, "[15]": {"biological_target": "GlcNAc(a1-6)Gal(b1-4)GlcNAc", "method_in_brief": "as §1"}, "[16]": {"biological_target": "GlcNAc(b1-2)Gal(b1-3)GalNAc", "method_in_brief": "as §1"}, "[17]": {"biological_target": "GlcNAc(b1-2)Man(a1-3)[GlcNAc(b1-2)Man(a1-6)]Man(b1-4)GlcNAc(b1-4)GlcNAc", "method_in_brief": "as §1"}, "[18]": {"biological_target": "GlcNAc(b1-2)Man(a1-3)[GlcNAc(b1-2)Man(a1-6)]Man(b1-4)GlcNAc(b1-4)[Fuc(a1-6)]GlcNAc", "method_in_brief": "as §1"}, "[19]": {"biological_target": "GlcNAc(b1-2)Man(a1-3)[GlcNAc(b1-4)][GlcNAc(b1-2)Man(a1-6)]Man(b1-4)GlcNAc(b1-4)GlcNAc", "method_in_brief": "as §1"}, "[20]": {"biological_target": "GlcNAc(b1-2)Man(a1-3)[GlcNAc(b1-4)][GlcNAc(b1-2)Man(a1-6)]Man(b1-4)GlcNAc(b1-4)[Fuc(a1-6)]GlcNAc", "method_in_brief": "as §1"}, "[21]": {"biological_target": "GlcNAc(b1-2)[GlcNAc(b1-4)]Man(a1-3)[GlcNAc(b1-2)Man(a1-6)]Man(b1-4)GlcNAc(b1-4)GlcNAc", "method_in_brief": "as §1"}, "[22]": {"biological_target": "GlcNAc(b1-2)[GlcNAc(b1-4)]Man(a1-3)[GlcNAc(b1-4)][GlcNAc(b1-2)Man(a1-6)]Man(b1-4)GlcNAc(b1-4)GlcNAc", "method_in_brief": "as §1"}, "[23]": {"biological_target": "GlcNAc(b1-2)[GlcNAc(b1-4)]Man(a1-3)[GlcNAc(b1-4)][GlcNAc(b1-2)[GlcNAc(b1-6)]Man(a1-6)]Man(b1-4)GlcNAc(b1-4)GlcNAc", "method_in_brief": "as §1"}, "[24]": {"biological_target": "GlcNAc(b1-2)[GlcNAc(b1-4)]Man(a1-3)[GlcNAc(b1-4)][GlcNAc(b1-2)[GlcNAc(b1-6)]Man(a1-6)]Man(b1-4)GlcNAc(b1-4)[Fuc(a1-6)]GlcNAc", "method_in_brief": "as §1"}, "[25]": {"biological_target": "GlcNAc(b1-2)[GlcNAc(b1-6)]Man(a1-6)[GlcNAc(b1-2)Man(a1-3)]Man(b1-4)GlcNAc(b1-4)GlcNAc", "method_in_brief": "as §1"}, "[26]": {"biological_target": "GlcNAc(b1-2)[GlcNAc(b1-6)]Man(a1-6)[GlcNAc(b1-2)Man(a1-3)]Man(b1-4)GlcNAc(b1-4)[Fuc(a1-6)]GlcNAc", "method_in_brief": "as §1"}, "[27]": {"biological_target": "GlcNAc(b1-2)[GlcNAc(b1-6)]Man(a1-6)[GlcNAc(b1-4)][GlcNAc(b1-2)Man(a1-3)]Man(b1-4)GlcNAc(b1-4)GlcNAc", "method_in_brief": "as §1"}, "[28]": {"biological_target": "GlcNAc(b1-3)Fuc", "method_in_brief": "as §1"}, "[29]": {"biological_target": "GlcNAc(b1-3)Gal", "method_in_brief": "as §1"}, "[30]": {"biological_target": "GlcNAc(b1-3)Gal(b1-3)GalNAc", "method_in_brief": "as §1"}, "[31]": {"biological_target": "GlcNAc(b1-3)Gal(b1-4)Glc", "method_in_brief": "as §1"}, "[32]": {"biological_target": "GlcNAc(b1-3)Gal(b1-4)GlcNAc", "method_in_brief": "as §1"}, "[33]": {"biological_target": "GlcNAc(b1-3)Gal(b1-4)GlcNAc(b1-2)Man(a1-3)[GlcNAc(b1-3)Gal(b1-4)GlcNAc(b1-2)Man(a1-6)]Man(b1-4)GlcNAc(b1-4)GlcNAc", "method_in_brief": "as §1"}, "[34]": {"biological_target": "GlcNAc(b1-3)Gal(b1-4)GlcNAc(b1-2)Man(a1-3)[GlcNAc(b1-3)Gal(b1-4)GlcNAc(b1-2)Man(a1-6)]Man(b1-4)GlcNAc(b1-4)[Fuc(a1-6)]GlcNAc", "method_in_brief": "as §1"}, "[35]": {"biological_target": "GlcNAc(b1-3)Gal(b1-4)GlcNAc(b1-2)[GlcNAc(b1-3)Gal(b1-4)GlcNAc(b1-6)]Man(a1-6)[GlcNAc(b1-3)Gal(b1-4)GlcNAc(b1-2)Man(a1-3)]Man(b1-4)GlcNAc(b1-4)GlcNAc", "method_in_brief": "as §1"}, "[36]": {"biological_target": "GlcNAc(b1-3)Gal(b1-4)GlcNAc(b1-3)Gal(b1-4)GlcNAc", "method_in_brief": "as §1"}, "[37]": {"biological_target": "GlcNAc(b1-3)Gal(b1-4)GlcNAc(b1-3)Gal(b1-4)GlcNAc(b1-2)Man(a1-3)[GlcNAc(b1-3)Gal(b1-4)GlcNAc(b1-3)Gal(b1-4)GlcNAc(b1-2)Man(a1-6)]Man(b1-4)GlcNAc(b1-4)GlcNAc", "method_in_brief": "as §1"}},
  "note": "This is one part of the list.",
  "data": [
    {"binder": "EUL D1A (Oryza sativa) (protein) MFGFGHHHNQAPAAPSDPNQIFKIFCRANENYCLTVRDSAVVLAPVNPKDEHQHWFKDMRFSTKVKDGEGMPAFALVNKATGLAVKHSLGQSHPVKLVPFNPEYEDASVLWTESKDVGKGFRCIRMVNNTRLNLDAFHGDKDHGGVRDGTTVVLWEWCKGDNQSWKILPWGPEAHSSSPGAATACTIGGVPVHTVRVFSAAGEDYCLTVRNGTACLAPKNPRDDYQHWIKDMRHSNKIRDEEGYPAFALVNKVTGEAIKHSTGQGHPVKLVPYNPEYQDESVLWTESKDVGKGFRCIRMVNNIYLNFDAFHGDKDHGGIHDGTEIVLWKWCEGDNQRWKILPWILEQKLISEEDLNSAVDHHHHHH", "values": [
      {"measurement": "glycan array binding signal (z-score)", "setting": "[1]", "result": -0.654},
      {"measurement": "glycan array binding signal (z-score)", "setting": "[2]", "result": -0.856},
      {"measurement": "glycan array binding signal (z-score)", "setting": "[3]", "result": 1.95},
      {"measurement": "glycan array binding signal (z-score)", "setting": "[4]", "result": 0.1},
      {"measurement": "glycan array binding signal (z-score)", "setting": "[5]", "result": 0.196},
      {"measurement": "glycan array binding signal (z-score)", "setting": "[6]", "result": -1.27},
      {"measurement": "glycan array binding signal (z-score)", "setting": "[7]", "result": -0.259},
      {"measurement": "glycan array binding signal (z-score)", "setting": "[8]", "result": -1.29},
      {"measurement": "glycan array binding signal (z-score)", "setting": "[9]", "result": -0.573},
      {"measurement": "glycan array binding signal (z-score)", "setting": "[10]", "result": 0.793},
      {"measurement": "glycan array binding signal (z-score)", "setting": "[11]", "result": -0.786},
      {"measurement": "glycan array binding signal (z-score)", "setting": "[12]", "result": -0.266},
      {"measurement": "glycan array binding signal (z-score)", "setting": "[13]", "result": 0.051},
      {"measurement": "glycan array binding signal (z-score)", "setting": "[14]", "result": 1.42},
      {"measurement": "glycan array binding signal (z-score)", "setting": "[15]", "result": 2.67},
      {"measurement": "glycan array binding signal (z-score)", "setting": "[16]", "result": -1.13},
      {"measurement": "glycan array binding signal (z-score)", "setting": "[17]", "result": 1.36},
      {"measurement": "glycan array binding signal (z-score)", "setting": "[18]", "result": 2.33},
      {"measurement": "glycan array binding signal (z-score)", "setting": "[19]", "result": -0.82},
      {"measurement": "glycan array binding signal (z-score)", "setting": "[20]", "result": -0.263},
      {"measurement": "glycan array binding signal (z-score)", "setting": "[21]", "result": -0.636},
      {"measurement": "glycan array binding signal (z-score)", "setting": "[22]", "result": -0.313},
      {"measurement": "glycan array binding signal (z-score)", "setting": "[23]", "result": -1.26},
      {"measurement": "glycan array binding signal (z-score)", "setting": "[24]", "result": -0.235},
      {"measurement": "glycan array binding signal (z-score)", "setting": "[25]", "result": 0.231},
      {"measurement": "glycan array binding signal (z-score)", "setting": "[26]", "result": 1.69},
      {"measurement": "glycan array binding signal (z-score)", "setting": "[27]", "result": -0.726},
      {"measurement": "glycan array binding signal (z-score)", "setting": "[28]", "result": 0.149},
      {"measurement": "glycan array binding signal (z-score)", "setting": "[29]", "result": 0.598},
      {"measurement": "glycan array binding signal (z-score)", "setting": "[30]", "result": -0.757},
      {"measurement": "glycan array binding signal (z-score)", "setting": "[31]", "result": 0.211},
      {"measurement": "glycan array binding signal (z-score)", "setting": "[32]", "result": -0.108},
      {"measurement": "glycan array binding signal (z-score)", "setting": "[33]", "result": -1.41},
      {"measurement": "glycan array binding signal (z-score)", "setting": "[34]", "result": 0.665},
      {"measurement": "glycan array binding signal (z-score)", "setting": "[35]", "result": 2.19},
      {"measurement": "glycan array binding signal (z-score)", "setting": "[36]", "result": 0.418},
      {"measurement": "glycan array binding signal (z-score)", "setting": "[37]", "result": -0.886}
    ]}
  ]
}
